Among the data in publication PMC7862231 are binding values, retold here.

The target of test [1] is T1, MAX interactor 1 (Mxi1), exogenously expressed in HEK293T cells (human) (UniProt P50539).
T1 sequence: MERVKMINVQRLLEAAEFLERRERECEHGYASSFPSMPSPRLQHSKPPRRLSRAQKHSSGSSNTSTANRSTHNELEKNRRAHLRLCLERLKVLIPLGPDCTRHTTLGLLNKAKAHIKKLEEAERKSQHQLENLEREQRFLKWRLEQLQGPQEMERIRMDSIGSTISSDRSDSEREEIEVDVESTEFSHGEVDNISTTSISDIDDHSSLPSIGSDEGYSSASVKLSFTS
The experiment in a line: co-IP; HEK293T cells transfected with indicated plasmids for 24 h, MG132 (10 uM) for 4 h; lysed in NETN buffer; co-IP with S beads or Myc agarose, western blotting.

Test [2] has as its target T2, SFB-Mxi1 expressed in HeLa cells (human) (UniProt P50539).
T2 sequence: T1 sequence
Briefly: co-IP; HeLa cells transfected with SFB-Mxi1 or SFB-UBE2O for 24 h, MG132 (10 uM) for 4 h; co-IP with S beads, western blotting for the endogenous partner.

In test [3] the target is T3, endogenous Mxi1 (human (endogenous in HeLa, H1299, A549)) (UniProt P50539).
T3 sequence: T1 sequence
The experiment in a line: co-IP; endogenous proteins; HeLa, H1299 and A549 cells, MG132 (10 uM) for 4 h; co-IP with anti-IgG, Mxi1 or UBE2O antibodies plus protein A/G agarose, western blotting.

Test [4] addresses T4, GST-Mxi1 fusion protein (human) (UniProt P50539).
T4 sequence: T1 sequence
The experiment in a line: pull-down; purified GST or GST-Mxi1 coupled to GST beads, incubated overnight with lysate of HEK293T cells transfected with SFB-UBE2O; washed five times with NETN buffer; immunoblotting; only the target purified.

For test [5], the target named is T5, Ubiquitin-conjugating enzyme E2O (UBE2O), exogenously expressed in HEK293T cells (human) (UniProt Q9C0C9).
T5 sequence: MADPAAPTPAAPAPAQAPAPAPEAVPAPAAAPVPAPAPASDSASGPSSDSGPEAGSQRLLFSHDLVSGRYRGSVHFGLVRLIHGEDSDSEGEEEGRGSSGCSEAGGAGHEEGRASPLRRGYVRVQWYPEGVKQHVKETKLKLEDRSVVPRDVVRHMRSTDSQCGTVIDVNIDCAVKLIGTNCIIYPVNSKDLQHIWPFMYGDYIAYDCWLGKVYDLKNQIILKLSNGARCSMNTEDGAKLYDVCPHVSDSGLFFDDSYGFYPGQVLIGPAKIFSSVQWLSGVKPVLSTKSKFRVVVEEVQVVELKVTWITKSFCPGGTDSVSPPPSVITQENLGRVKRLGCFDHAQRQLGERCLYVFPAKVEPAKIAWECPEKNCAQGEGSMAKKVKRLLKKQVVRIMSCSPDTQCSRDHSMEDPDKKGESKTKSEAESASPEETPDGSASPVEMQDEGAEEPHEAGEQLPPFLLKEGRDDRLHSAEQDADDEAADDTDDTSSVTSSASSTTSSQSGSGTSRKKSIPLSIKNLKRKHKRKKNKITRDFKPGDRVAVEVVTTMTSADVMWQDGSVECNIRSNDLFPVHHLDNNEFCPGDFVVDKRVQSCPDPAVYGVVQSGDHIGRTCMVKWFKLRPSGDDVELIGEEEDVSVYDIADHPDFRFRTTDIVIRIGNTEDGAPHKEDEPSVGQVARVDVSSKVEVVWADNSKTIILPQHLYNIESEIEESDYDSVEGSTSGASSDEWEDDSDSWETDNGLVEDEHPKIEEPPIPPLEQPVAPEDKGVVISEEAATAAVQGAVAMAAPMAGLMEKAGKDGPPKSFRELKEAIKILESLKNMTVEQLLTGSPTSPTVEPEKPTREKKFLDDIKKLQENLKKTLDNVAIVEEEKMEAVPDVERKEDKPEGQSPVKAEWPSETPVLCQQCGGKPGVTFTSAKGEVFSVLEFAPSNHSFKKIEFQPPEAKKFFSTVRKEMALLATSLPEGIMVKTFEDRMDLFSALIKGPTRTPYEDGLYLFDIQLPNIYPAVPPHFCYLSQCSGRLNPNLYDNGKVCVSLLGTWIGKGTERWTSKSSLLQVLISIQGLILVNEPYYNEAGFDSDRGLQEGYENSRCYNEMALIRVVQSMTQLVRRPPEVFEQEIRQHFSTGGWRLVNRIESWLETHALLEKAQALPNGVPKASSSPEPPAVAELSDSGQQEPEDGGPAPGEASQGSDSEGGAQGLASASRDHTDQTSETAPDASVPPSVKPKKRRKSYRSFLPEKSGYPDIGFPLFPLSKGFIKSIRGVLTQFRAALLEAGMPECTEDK
Briefly: co-IP; HEK293T cells transfected with indicated plasmids for 24 h, MG132 (10 uM) for 4 h; lysed in NETN buffer; co-IP with S beads or Myc agarose, western blotting.

Test [6] deals with T6, SFB-UBE2O expressed in HeLa cells (human) (UniProt Q9C0C9).
T6 sequence: T5 sequence
Briefly: co-IP; HeLa cells transfected with SFB-Mxi1 or SFB-UBE2O for 24 h, MG132 (10 uM) for 4 h; co-IP with S beads, western blotting for the endogenous partner.

Results are given in words; binding and its absence hold for the method and conditions named. Binding seen in cells or lysates may run through a third protein. Some entries that bind do so weakly or less than the wild type. For part of these data: Sequences can lack the tags named with a protein.

B1: Ubiquitin-conjugating enzyme E2O (UBE2O), exogenously expressed in HEK293T cells (enzyme, UniProt Q9C0C9 1-1292)
chain: T5 sequence
On to B1, for which the binding entry in test [1] is on record as “binds”.

B2: endogenous UBE2O (enzyme, UniProt Q9C0C9 1-1292)
chain: T5 sequence
Consider B2, for which the binding entry in test [2] and in test [3] was “binds” throughout.

B3: SFB-UBE2O expressed in HEK293T cells (enzyme, UniProt Q9C0C9 1-1292)
chain: T5 sequence
On to B3, for which the binding entry in test [4] is on record as “binds”.

B4: MAX interactor 1 (Mxi1), exogenously expressed in HEK293T cells (protein, UniProt P50539 1-228)
chain: T1 sequence
For the molecule B4, the binding result in test [5] was “binds”.

B5: endogenous Mxi1 (protein, UniProt P50539 1-228)
chain: T1 sequence
For B5, the binding result in test [6] is reported as “binds”.
